## Library screen at single concentrations

Sequences of proteins named here, by UniProt entry; tags and fusion partners are left off. Residues count along the entry.
UniProt P9WPC5, whole entry: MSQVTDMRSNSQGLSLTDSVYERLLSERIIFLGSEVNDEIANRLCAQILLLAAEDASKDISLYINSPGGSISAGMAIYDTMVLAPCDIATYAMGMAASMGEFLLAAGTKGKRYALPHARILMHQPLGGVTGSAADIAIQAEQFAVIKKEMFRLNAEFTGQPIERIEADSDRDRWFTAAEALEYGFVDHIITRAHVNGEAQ
UniProt P9WPC3, whole entry partner: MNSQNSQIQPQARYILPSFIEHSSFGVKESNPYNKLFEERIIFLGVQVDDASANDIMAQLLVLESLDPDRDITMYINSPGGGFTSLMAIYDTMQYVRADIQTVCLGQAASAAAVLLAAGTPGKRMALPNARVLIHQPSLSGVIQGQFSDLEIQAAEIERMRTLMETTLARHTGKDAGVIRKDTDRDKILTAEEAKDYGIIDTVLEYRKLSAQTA
UniProt Q4DA54, 1-478: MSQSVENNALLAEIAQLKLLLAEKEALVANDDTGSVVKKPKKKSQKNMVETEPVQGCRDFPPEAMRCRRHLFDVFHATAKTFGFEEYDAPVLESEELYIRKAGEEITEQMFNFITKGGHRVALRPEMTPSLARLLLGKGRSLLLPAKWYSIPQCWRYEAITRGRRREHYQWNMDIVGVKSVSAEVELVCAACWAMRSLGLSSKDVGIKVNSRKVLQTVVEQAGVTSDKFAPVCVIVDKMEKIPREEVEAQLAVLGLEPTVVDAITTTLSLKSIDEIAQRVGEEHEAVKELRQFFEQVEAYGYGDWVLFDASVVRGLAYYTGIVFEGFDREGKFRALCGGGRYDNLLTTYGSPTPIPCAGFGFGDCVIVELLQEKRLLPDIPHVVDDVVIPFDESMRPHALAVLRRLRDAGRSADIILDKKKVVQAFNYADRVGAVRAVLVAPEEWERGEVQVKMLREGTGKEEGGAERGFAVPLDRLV
UniProt I6X8D2, whole entry: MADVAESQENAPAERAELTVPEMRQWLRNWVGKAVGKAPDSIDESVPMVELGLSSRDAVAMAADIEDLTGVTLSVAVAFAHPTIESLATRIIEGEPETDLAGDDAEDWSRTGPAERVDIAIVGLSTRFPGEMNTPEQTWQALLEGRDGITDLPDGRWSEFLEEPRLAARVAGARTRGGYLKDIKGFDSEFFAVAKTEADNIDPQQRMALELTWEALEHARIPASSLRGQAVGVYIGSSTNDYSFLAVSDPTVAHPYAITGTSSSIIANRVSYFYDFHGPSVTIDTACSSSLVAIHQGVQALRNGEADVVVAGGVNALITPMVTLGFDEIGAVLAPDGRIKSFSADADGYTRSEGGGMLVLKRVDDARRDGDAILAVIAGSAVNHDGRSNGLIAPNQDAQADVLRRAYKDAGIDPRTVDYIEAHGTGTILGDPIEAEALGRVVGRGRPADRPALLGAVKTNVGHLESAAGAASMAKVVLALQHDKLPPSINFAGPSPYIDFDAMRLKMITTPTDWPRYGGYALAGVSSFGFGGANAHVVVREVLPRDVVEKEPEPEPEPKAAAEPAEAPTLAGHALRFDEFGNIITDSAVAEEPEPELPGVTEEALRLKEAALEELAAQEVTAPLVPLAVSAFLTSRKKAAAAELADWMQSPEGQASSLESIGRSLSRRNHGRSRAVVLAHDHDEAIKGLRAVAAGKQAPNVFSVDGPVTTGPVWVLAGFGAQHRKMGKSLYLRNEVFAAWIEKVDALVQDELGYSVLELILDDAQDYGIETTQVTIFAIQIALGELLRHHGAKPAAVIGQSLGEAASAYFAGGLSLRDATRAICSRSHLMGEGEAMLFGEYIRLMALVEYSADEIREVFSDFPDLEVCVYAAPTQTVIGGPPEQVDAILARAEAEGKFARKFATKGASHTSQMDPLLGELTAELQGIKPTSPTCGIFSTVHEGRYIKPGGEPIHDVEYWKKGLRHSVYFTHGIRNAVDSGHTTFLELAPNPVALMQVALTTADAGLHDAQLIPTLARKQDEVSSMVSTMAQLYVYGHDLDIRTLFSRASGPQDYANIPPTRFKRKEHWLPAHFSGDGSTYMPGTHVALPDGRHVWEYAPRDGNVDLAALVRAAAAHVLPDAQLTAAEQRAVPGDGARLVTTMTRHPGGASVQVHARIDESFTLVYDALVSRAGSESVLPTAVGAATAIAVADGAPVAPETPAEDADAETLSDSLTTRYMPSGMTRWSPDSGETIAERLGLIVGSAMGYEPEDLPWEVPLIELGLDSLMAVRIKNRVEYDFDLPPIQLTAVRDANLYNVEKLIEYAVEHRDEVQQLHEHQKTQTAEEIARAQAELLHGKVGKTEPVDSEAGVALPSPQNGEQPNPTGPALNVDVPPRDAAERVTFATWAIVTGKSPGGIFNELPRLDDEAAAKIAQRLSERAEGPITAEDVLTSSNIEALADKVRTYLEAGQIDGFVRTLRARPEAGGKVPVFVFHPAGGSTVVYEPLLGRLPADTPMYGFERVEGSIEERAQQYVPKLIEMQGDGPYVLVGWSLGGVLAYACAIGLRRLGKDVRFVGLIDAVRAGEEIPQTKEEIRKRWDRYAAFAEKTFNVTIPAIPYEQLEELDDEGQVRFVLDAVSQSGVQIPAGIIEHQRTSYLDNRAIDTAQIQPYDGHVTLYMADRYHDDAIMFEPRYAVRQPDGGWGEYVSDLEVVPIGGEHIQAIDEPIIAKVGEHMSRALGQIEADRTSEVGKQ
UniProt Q8IDJ8, 1-583: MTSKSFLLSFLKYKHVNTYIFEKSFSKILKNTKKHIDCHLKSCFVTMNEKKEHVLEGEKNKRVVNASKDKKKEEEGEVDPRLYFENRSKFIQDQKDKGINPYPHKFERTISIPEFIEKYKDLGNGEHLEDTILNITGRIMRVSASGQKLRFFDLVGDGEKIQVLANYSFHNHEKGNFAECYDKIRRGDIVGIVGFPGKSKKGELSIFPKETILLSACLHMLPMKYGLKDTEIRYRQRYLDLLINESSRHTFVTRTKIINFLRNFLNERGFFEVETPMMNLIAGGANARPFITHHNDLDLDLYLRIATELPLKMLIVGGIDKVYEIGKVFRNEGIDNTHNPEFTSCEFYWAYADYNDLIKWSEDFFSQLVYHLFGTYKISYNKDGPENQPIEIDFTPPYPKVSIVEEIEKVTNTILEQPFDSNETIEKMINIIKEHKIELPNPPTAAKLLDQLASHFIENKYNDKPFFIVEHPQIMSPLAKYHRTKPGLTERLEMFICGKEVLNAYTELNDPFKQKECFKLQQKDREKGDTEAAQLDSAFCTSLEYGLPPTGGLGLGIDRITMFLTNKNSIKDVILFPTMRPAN

From ChEMBL document CHEMBL3988442, “University of Dundee, Small-Polar-MMV Screening Library” (2021).

Results are given as percent effect. The controls that fix the scale are not given in the record; negative values are as filed. This is an unselected part of the compounds tested. A dash means the value is not listed here; it may have been measured.

A: 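ClpP1P2, Mycobacterium tuberculosis (UniProt P9WPC5 and UniProt P9WPC3). Protease assay of ClpP1P2, read by the AMC dye that it sets free. Tested at 50 µM. Direction is inferred from only a few compounds that gave an IC50; most scored high, so higher reads as stronger inhibition. Most other retested compounds had strongly negative values. About 69,000 compounds were tested under these conditions; 0.015% (about 10) showed 50% or more at least once.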
B: 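Assay of Toxoplasma gondii numbers, read through their beta-galactosidase reporter with a colour substrate. Tested at 10 µM. The record gives no direction; the compounds picked for IC50 retests had high values, so higher reads as fewer parasites. Size under these conditions: about 67,000 compounds, about 260 of them at 50% or above in at least one test.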
C: 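Histidine-tRNA ligase, Trypanosoma cruzi CL Brener (UniProt Q4DA54). Enzyme assay of histidyl-tRNA synthetase; the read-out is not stated. Concentration: 30 µM. Direction is inferred from retests: higher values go with stronger inhibition. Size under these conditions: about 69,000 compounds, about 31 of them at 50% or above in at least one test.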
D: 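Polyketide synthase Pks13, Mycobacterium tuberculosis (UniProt I6X8D2). Enzyme assay of the thioesterase domain of polyketide synthase 13; the read-out is not stated. Compounds at 30 µM. The record gives no direction; the compounds picked for IC50 retests had high values, so higher reads as stronger inhibition. About 67,000 compounds were tested under these conditions; 0.46% (about 300) showed 50% or more at least once.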
E: 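Enzyme assay of the cytosolic lysyl-tRNA synthetase in 384-well plates, read by luminescence. Target: Lysine-tRNA ligase, Plasmodium falciparum 3D7 (UniProt Q8IDJ8). Compounds at 30 µM. Higher reads as stronger inhibition, judged from the few compounds that gave an IC50. Size under these conditions: about 69,000 compounds, about 49 of them at 50% or above in at least one test.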

SMILES,A,B,C,D,E
O=C1NCCCCC1NCc1csc(-c2ccccn2)n1 (centres unmarked),7.277%,-,2.632%,-21.78%,3.926%
COc1cccc(CC2CN(C3CCCCC3)CCO2)c1 (centres unmarked),-17.58%,32.98%,-1.345%,1.507%,-3.806%
NC(=O)Cn1cc(NC(=O)N2CCC(c3ccccc3)CC2)cn1,-30.08%,-6.876%,8.235%,-10.45%,1.988%
O=C(CC1CC1)N1CCO[C@H]2[C@H](OCCCn3cccn3)CC[C@@H]21,-6.295%,-,13.33%,-11.68%,2.43%
CC(=O)N1CCC[C@@H](NCc2ccc(F)cc2)[C@@H]1c1ccc(C)s1,-12.91%,17.11%,1.521%,-12.18%,1.474%
Cc1nc(C)c(C)c(N2CCC3(CCOC3)C2)n1 (centres unmarked),2.921%,1.406%,7.792%,-33.24%,-1.822%
CN(Cc1nnc(C2CC2)o1)C(c1ccc(F)cc1)c1cccnc1 (centres unmarked),-17.29%,-4.615%,0.5236%,-74.79%,4.29%
O=C(NCCN1CCCCCC1=O)NCc1ccc(Cl)s1,-20.66%,-26.52%,3.061%,-9.671%,6.813%
Cc1oncc1C(=O)NCc1cc(=O)n2c(n1)CN(C(C)C)CCC2.O=C(O)C(F)(F)F,-,2.703%,-,-,-
CN(Cc1nnc(C2CC2)n1C)C1CCN(Cc2ccc(F)cc2)C1 (centres unmarked),9.726%,7.639%,4.511%,-9.886%,4.696%
Cl.O=C1NC2(CCNCC2)CC1c1ccccc1 (centres unmarked),-,5.009%,-,-,-
[H][C@]12CC[C@](O)(c3ccc(C)cc3)[C@@]1([H])CN(S(=O)(=O)C(C)C)C2,-,-46.99%,-,-,-
Cc1ccc(-c2nnc(C3CCCN3S(=O)(=O)c3cnn(C)c3C)o2)s1 (centres unmarked),-12.61%,-12.67%,3.448%,6.296%,0.3132%
[H][C@@]12CCCO[C@]1([H])[C@H](N(C)Cc1ccco1)CN(C(=O)c1ccoc1C)C2,-,-9.689%,-,-,-
O=C(c1cc2ccccc2[nH]c1=O)N1CCC2(CCCNC2)C1 (centres unmarked),12.76%,16.25%,0%,-8.405%,2.816%
CCCNC(=O)C(C)NC(=O)CCc1ccccc1Br (centres unmarked),-10.48%,8.665%,2.439%,-4.51%,-2.24%
COCCOCCNC(=O)N1CCc2c(F)ccc(F)c2C1,11.13%,7.769%,4.372%,-9.823%,3.557%
O=C(O)C(F)(F)F.[H][C@@]12CN(Cc3ccco3)CCC[C@]1(C(=O)O)CN(c1ncc(C)cn1)C2,-,0.3695%,-,-,-
Clc1cc(N2CCC(N3CCCC3)CC2)nc2[nH]ccc12,-23.19%,11.75%,18%,4.744%,-2.075%
CCN1CCC2(CCC1=O)CN(C1CCOCC1)CCN2C (centres unmarked),-11.22%,-43.35%,2.4%,-17.18%,6.23%
NC(=O)c1ccc2c(c1)nc1n2CCN(Cc2cccnc2)C1,-14.07%,-23.16%,-2.484%,-5.6%,5.996%
CCOc1ccc(CC(=O)N(CCC(=O)OC)CC2CCCO2)cc1 (centres unmarked),-4.425%,1.806%,-2.941%,-20.26%,-3.627%
CCc1nc(C2CCCN2Cc2nc3ccccc3o2)no1 (centres unmarked),-3.319%,-6.084%,0.3774%,-10.42%,0.8274%
Cc1cnc(NC(=O)C(C)n2ccc(C(F)(F)F)n2)s1 (centres unmarked),-15.79%,-24.69%,6.211%,3.871%,5.028%
CC(C)(C)c1nnc2n1C(C(=O)N1CCCC1)CC2 (centres unmarked),0.1374%,2.303%,5.325%,-12.45%,4.552%
CSCC[C@H](NC(=O)CCn1cc(C(C)=O)c2ccccc21)C(=O)O,-16.05%,4.178%,0%,-4.616%,3.907%
CN(C)CCSc1ccc(NC(=O)c2nccn3ccnc23)cc1,-10.72%,-8.251%,3.158%,0.9873%,2.457%
CCCc1noc(CCC(=O)Nc2cc(C(F)(F)F)c[nH]c2=O)n1,0.8858%,-,9.195%,-4.881%,2.94%
Cc1nc(CN(Cc2cccnc2)Cc2ccsc2)c[nH]1,-5.253%,-0.4035%,4.712%,-27.07%,0.8277%
CSCc1noc(CN(C)C(C)c2nc(C)sc2C)n1 (centres unmarked),12.95%,-19.9%,8.247%,13.46%,-0.1783%
Cc1nccn1CCCC(=O)N1CCCN(c2cccnn2)CC1,19.22%,-6.484%,7.163%,-,-0.3168%
COc1ncccc1CNC(=O)CN1CCCCCC1=O,-15.72%,19.53%,0.9804%,-3.338%,5.579%
CCN1CCC(N2C[C@@H](C(=O)O)[C@H](c3cccc(OC)c3)C2)CC1,11.16%,-5.935%,0.578%,-30.54%,6.073%
CN(Cc1nccn1CC(F)(F)F)C(=O)c1ccc(F)c(F)c1,-4.952%,0.7541%,4.348%,-32.19%,0.2902%
CN(Cc1csc(-c2ccccc2)n1)C(=O)CCNS(C)(=O)=O,-5.499%,-6.81%,6.024%,4.82%,4.751%
Cc1ccc2c(c1)C(=O)NCC1(CCN(C(=O)c3csc(C)c3)CC1)O2,2.678%,-9.036%,-0.7491%,-3.203%,0.4031%
CC(Cn1cccn1)NCc1csc(-c2cccs2)n1 (centres unmarked),-1.326%,-0.6318%,2.256%,-2.297%,9.898%
CCn1ncc2c1CCCC2NCc1cc(C)ccc1OC (centres unmarked),-16.27%,-2.007%,2.286%,-11.53%,0.2236%

For reference, 2 entries once more:

For CN(Cc1csc(-c2ccccc2)n1)C(=O)CCNS(C)(=O)=O the result was A: -5.499%; B: -6.81%; C: 6.024%; D: 4.82%; E: 4.751%.
For Cc1oncc1C(=O)NCc1cc(=O)n2c(n1)CN(C(C)C)CCC2.O=C(O)C(F)(F)F the result was B: 2.703%.